# Source: publication PMC4283650, “Untangling dopamine-adenosine receptor-receptor assembly in experimental parkinsonism in rats” (Disease Models & Mechanisms, 2014)
# Sequences of proteins named here, by UniProt entry; tags and fusion partners are left off. A change or cut given only in a name is not applied to a line headed by its entry.
# UniProt P30543: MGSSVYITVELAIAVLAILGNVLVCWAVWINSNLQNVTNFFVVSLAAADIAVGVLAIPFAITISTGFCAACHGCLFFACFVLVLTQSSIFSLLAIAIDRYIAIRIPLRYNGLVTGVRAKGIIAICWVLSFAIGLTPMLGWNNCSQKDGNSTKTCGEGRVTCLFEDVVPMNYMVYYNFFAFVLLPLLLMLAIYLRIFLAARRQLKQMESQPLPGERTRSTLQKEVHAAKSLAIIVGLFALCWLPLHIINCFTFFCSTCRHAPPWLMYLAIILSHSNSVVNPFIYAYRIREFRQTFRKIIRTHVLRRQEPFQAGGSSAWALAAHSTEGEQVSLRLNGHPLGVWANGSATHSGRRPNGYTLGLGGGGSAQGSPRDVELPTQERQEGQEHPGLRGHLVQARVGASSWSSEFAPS
# UniProt P61169: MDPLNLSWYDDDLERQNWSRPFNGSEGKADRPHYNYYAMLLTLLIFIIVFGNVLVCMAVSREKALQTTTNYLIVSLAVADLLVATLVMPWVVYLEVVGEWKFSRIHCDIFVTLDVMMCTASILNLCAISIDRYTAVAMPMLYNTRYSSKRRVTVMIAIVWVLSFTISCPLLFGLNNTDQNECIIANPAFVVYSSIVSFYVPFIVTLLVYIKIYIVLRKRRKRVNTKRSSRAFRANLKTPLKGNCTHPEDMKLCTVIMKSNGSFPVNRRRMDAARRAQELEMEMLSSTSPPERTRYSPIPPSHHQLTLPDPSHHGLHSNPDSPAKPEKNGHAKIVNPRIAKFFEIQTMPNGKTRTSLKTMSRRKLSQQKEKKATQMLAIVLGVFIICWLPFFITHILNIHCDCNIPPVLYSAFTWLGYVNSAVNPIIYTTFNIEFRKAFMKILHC
# These are yes or no findings as the source states them, for the method shown. Binding seen in cells or lysates may run through a third protein. Some entries that bind do so weakly or less than the wild type.
# Columns and labels:
# [1] = target: adenosine A2A receptor (native, rat striatum) (rat (endogenous in striatum)) (UniProt P30543); assay: proximity ligation; Duolink in situ PLA on PFA-fixed coronal rat brain sections with goat anti-A2AR and rabbit anti-D2R polyclonal antibodies; striatum of normal and 6-OHDA-lesioned hemispheres; signal counted as dots/nuclei
# [2] = target: adenosine A2A receptor (native, rat striatum) (rat (endogenous in striatum)) (UniProt P30543); assay: FRET or BRET; TR-FRET between fluorescent ligands NAPS-Lumi4-Tb (1 nM) and SCH-red (10 nM) on fresh rat striatal membranes purified by sucrose gradient (70 ug per assay), overnight at 4°C, Tris-Krebs buffer pH 7.4; normal rats and 6-OHDA-lesioned rats
# [3] = target: wild-type A2AR tagged with SNAP (UniProt P29274); assay: FRET or BRET; TR-FRET between fluorescent ligands NAPS-Lumi4-Tb (1 nM, donor on D2R) and SCH-red (10 nM, acceptor on A2AR) on transiently transfected HEK-293 cells; Tris-Krebs buffer pH 7.4
Substance,binding [1],binding [2],binding [3]
"dopamine D2 receptor (native, rat striatum) (from UniProt P61169 1-444)",binds,binds,–
wild-type D2R tagged with Halo (from UniProt P14416 1-443) (receptor),–,–,binds
